Assay results taken from article PMC12501038.
These are yes or no findings as the source states them, for the method shown. Binding seen in cells or lysates may run through a third protein. Here binding means that the protein was enriched with, or labelled near, the bait; the list need not be complete.

Amino acid sequences for entries named in this document (tags omitted).
UniProt Q8TB45: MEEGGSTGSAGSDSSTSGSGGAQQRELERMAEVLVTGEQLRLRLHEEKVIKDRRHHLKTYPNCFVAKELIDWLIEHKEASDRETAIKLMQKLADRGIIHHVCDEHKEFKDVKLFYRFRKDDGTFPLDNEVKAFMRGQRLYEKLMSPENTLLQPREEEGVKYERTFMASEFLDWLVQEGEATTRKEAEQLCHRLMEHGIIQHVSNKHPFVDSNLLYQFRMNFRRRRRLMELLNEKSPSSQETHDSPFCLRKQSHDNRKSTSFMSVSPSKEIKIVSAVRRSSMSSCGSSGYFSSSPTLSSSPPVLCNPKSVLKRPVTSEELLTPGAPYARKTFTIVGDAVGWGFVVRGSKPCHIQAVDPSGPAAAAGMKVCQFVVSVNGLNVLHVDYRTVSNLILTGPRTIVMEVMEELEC
UniProt Q7Z6Z7: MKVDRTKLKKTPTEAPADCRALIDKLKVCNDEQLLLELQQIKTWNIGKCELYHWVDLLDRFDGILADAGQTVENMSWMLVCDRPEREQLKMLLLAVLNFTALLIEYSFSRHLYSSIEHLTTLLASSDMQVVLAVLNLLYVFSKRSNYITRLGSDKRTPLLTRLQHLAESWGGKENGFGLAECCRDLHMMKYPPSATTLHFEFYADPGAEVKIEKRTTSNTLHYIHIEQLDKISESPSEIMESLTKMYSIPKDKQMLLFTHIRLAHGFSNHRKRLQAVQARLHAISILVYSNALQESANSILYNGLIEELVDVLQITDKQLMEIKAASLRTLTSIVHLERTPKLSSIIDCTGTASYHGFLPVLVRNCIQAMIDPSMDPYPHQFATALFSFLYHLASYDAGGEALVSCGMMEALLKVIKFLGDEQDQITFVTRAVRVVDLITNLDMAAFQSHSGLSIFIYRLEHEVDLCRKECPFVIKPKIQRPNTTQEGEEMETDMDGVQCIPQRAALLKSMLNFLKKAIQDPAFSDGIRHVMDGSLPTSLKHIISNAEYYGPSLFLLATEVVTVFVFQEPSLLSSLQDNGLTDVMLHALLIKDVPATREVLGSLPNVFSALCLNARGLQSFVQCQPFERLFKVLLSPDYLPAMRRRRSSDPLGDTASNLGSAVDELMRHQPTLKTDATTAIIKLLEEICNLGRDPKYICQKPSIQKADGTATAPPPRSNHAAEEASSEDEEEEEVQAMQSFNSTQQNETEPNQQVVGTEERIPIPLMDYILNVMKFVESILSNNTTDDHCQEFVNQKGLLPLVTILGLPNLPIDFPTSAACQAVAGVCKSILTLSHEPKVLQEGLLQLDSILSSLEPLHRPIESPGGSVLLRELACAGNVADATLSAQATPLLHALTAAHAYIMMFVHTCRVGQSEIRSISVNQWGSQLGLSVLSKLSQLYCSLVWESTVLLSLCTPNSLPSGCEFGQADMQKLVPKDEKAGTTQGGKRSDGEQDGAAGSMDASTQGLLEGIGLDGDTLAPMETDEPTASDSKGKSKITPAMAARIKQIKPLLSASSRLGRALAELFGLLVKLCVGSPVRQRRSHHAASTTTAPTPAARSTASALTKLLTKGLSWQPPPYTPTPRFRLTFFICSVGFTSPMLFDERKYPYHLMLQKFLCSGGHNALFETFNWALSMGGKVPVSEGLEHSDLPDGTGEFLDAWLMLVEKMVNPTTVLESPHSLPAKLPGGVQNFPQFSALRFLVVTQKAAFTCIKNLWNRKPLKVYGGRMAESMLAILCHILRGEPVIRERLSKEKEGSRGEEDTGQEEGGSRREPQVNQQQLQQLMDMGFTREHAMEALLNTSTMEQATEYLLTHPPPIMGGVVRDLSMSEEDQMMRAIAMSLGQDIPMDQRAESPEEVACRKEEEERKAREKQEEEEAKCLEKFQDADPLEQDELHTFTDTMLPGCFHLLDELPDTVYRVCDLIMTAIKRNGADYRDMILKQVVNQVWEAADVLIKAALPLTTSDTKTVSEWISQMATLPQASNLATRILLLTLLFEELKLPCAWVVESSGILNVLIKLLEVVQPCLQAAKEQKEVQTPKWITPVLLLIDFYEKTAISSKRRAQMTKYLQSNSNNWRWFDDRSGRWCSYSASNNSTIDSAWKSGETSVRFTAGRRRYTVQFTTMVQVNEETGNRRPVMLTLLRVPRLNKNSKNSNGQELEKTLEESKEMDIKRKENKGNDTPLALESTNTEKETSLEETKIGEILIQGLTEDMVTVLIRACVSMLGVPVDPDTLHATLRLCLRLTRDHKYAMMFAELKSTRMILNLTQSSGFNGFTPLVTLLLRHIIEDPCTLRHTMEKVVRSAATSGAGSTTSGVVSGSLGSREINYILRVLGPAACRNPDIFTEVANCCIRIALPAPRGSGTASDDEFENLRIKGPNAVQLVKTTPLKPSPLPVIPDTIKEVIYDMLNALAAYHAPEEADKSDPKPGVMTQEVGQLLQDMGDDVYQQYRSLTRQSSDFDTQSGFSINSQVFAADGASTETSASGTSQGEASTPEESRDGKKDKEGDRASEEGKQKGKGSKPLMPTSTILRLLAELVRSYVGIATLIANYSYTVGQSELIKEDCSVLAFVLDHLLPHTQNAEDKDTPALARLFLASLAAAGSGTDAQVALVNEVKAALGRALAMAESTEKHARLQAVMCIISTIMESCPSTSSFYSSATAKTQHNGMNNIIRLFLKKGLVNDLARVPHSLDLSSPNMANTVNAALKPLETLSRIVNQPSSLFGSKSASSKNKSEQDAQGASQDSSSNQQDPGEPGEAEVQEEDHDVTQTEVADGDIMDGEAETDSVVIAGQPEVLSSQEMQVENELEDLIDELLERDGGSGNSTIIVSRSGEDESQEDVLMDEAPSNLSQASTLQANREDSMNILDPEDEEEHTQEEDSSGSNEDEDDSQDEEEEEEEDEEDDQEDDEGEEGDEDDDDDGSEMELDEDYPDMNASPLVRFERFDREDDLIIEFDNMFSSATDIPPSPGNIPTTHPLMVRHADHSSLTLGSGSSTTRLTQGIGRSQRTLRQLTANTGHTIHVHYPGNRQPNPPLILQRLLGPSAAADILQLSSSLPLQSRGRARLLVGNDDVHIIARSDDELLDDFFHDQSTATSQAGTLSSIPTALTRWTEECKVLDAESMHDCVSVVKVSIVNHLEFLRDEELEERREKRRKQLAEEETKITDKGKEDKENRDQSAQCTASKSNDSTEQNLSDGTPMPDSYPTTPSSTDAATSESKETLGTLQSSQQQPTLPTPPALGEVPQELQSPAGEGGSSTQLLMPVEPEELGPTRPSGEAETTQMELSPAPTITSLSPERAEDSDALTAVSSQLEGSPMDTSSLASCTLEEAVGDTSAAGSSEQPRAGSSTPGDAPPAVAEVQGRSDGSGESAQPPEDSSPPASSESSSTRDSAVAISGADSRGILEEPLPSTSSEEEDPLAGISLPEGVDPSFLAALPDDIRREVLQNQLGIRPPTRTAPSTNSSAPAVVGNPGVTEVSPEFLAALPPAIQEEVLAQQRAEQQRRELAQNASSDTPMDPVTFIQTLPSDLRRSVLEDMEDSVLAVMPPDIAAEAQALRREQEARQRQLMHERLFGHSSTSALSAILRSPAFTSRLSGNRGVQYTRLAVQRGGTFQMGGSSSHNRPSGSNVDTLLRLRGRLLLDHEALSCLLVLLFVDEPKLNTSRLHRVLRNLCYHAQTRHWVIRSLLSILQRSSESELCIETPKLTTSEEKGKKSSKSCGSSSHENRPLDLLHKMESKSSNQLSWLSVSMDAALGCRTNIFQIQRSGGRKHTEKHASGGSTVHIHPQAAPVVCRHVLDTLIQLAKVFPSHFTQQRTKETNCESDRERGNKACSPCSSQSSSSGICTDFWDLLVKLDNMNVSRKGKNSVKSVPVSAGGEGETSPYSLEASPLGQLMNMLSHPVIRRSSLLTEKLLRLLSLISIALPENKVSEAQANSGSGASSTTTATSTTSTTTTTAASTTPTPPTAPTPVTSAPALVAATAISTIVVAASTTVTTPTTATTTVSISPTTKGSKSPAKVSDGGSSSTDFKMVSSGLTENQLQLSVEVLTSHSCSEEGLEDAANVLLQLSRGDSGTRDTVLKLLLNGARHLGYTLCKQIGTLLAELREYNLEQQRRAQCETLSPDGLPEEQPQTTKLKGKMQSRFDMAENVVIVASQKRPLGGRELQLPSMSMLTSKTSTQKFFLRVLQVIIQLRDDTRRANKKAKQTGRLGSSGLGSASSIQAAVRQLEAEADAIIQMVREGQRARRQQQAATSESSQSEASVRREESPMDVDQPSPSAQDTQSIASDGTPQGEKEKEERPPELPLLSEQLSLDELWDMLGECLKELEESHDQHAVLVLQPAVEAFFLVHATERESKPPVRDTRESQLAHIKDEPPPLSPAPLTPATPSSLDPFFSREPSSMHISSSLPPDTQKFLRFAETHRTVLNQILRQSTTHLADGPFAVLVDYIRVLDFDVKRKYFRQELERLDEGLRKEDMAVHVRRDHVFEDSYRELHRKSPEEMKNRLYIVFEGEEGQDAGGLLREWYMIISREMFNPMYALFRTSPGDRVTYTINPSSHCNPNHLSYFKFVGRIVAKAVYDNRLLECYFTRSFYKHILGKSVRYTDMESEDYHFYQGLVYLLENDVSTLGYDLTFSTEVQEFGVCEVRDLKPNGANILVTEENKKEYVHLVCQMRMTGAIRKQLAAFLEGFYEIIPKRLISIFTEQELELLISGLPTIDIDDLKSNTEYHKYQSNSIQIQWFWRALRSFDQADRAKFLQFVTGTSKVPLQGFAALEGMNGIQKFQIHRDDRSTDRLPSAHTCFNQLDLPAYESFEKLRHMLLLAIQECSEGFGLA

Biological target: FLAG-DEPTOR (UniProt Q8TB45)
Experiment: affinity purification with mass spectrometry; FLAG-DEPTOR immunoprecipitates analysed by mass spectrometry; cells not given

- binding: binds
Substance: HUWE1 (endogenous, HEK293) (from UniProt Q7Z6Z7 1-4374) (enzyme)
